Data on three molecules can be found in publication PMC9654567.

Test in all cases: co-IP; lysate of the SUN5 stable overexpression cell line (IP lysis solution with phosphatase inhibitor cocktail); antibodies pre-bound to magnetic beads, incubated with total protein at 4 °C overnight; Western blotting of the precipitate
On the technique in general: In western blotting, separated proteins are transferred to a membrane and probed.

For assay [1], the target named is T1, SUN5 with Flag tag (pLVX-IRES-Puro-SUN5-Flag) (UniProt Q8TC36).
T1 sequence: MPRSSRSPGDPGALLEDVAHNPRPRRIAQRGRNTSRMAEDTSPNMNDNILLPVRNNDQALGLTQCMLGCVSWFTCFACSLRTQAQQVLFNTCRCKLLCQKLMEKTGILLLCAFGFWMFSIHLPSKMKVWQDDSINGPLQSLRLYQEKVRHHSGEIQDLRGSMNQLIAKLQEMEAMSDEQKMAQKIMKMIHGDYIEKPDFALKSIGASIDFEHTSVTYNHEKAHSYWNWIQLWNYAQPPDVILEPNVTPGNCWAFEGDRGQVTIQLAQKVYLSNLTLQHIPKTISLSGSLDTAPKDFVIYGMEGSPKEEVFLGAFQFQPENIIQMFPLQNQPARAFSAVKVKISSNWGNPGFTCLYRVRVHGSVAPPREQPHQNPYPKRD

Assay [2] deals with T2, nucleoporin 93 (Nup93) (human (endogenous in SUN5-OE CRC cells, LoVo or DLD-1)) (UniProt Q8N1F7).
T2 sequence: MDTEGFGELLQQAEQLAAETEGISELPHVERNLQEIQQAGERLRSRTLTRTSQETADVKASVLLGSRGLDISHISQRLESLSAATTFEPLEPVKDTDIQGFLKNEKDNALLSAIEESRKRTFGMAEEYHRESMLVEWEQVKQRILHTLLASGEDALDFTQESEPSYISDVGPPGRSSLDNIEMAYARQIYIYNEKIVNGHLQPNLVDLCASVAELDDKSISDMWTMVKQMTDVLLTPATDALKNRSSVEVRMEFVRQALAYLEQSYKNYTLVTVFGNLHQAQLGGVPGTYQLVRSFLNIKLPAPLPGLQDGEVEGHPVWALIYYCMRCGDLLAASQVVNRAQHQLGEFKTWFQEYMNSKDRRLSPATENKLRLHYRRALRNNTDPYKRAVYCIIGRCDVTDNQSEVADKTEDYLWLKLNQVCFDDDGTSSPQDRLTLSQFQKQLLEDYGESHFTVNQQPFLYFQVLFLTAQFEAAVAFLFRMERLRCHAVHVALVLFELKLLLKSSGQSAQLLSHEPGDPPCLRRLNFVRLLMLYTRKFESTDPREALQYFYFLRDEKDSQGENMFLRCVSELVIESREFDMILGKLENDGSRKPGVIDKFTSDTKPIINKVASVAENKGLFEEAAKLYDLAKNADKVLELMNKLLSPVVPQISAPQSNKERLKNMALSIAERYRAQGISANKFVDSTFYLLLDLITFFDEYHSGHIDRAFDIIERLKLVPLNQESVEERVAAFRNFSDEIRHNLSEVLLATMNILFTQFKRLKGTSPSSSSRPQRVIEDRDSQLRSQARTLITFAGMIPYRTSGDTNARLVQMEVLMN

The target of assay [3] is T1, SUN5 with Flag tag (pLVX-IRES-Puro-SUN5-Flag). This is another data set of the same source.

Where two headings read alike, the source gives them in different places. These are yes or no findings as the source states them, for the method shown. In cells and extracts the contact can be indirect. Some binding calls cover weakened binding; strength is not graded here. Tags and fused reporters may be left off the sequences shown.

For Nesprin2 (from UniProt Q8WXH0 1-6885), in assay [1], the binding entry was “binds”.

B1: SUN5 with Flag tag (pLVX-IRES-Puro-SUN5-Flag) (protein, UniProt Q8TC36 1-379)
chain: T1 sequence
Regarding B1, the binding result in assay [2] is “binds”.

B2: nucleoporin 93 (Nup93) (protein, UniProt Q8N1F7 1-819)
chain: T2 sequence
Turning to B2, the binding entry in assay [3] is given as “binds”.
